# From US20080064630A1
# The chains behind the UniProt entries cited, without tags or fusion partners. Where a name states a change or a piece, a line headed by the entry shows the natural chain unless it says otherwise.
# UniProt P01241: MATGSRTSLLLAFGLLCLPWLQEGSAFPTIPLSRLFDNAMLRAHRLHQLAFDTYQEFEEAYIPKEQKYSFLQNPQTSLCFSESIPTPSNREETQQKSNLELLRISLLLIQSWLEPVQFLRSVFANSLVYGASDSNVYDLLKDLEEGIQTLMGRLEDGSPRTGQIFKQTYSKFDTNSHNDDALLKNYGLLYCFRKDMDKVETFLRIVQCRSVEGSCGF
# Results are given in words; binding and its absence hold for the method and conditions named. Some entries that bind do so weakly or less than the wild type.
# Target: T1, α2-macroglobulin (UniProt P01023)
# T1 sequence (looked up): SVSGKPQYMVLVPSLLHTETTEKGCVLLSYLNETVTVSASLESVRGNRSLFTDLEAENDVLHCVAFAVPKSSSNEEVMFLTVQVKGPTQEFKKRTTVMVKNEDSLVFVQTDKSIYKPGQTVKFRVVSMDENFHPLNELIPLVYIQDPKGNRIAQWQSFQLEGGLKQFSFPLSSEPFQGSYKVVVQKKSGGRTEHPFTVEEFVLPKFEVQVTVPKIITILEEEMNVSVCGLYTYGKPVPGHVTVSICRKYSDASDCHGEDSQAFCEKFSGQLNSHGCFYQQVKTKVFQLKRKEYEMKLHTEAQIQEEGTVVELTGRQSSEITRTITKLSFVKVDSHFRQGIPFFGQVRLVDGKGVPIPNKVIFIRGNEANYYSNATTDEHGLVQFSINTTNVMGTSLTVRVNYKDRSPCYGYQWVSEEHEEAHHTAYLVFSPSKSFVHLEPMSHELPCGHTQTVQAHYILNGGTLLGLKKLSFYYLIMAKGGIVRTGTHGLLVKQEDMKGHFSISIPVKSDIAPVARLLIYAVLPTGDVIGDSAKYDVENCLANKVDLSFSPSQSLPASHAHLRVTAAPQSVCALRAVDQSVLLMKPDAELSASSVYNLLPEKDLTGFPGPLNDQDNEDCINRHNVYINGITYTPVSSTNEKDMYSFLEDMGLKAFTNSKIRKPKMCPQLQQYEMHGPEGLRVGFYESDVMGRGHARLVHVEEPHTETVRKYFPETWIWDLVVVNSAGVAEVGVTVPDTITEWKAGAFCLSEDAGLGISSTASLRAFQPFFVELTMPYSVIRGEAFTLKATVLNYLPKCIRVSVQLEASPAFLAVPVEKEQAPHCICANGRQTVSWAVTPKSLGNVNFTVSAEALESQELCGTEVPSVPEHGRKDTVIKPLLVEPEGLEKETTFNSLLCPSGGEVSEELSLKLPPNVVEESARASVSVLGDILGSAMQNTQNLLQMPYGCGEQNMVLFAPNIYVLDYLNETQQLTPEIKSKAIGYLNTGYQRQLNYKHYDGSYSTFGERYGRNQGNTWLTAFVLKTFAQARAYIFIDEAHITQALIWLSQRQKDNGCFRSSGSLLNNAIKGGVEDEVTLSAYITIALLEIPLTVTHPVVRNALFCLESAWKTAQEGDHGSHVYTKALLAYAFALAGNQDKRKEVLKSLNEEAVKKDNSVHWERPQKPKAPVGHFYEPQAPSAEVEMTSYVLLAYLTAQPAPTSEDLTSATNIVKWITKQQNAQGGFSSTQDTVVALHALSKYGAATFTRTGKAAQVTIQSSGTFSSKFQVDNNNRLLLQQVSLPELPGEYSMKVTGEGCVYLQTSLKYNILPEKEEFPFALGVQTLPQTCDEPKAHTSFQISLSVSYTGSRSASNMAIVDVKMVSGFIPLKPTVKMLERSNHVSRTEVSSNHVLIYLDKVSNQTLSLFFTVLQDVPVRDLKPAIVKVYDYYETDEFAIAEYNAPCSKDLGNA
# Experiment: SPR (Biacore 3000), α2-macroglobulin amine-coupled to a CM5 chip, analyte injected at 1500 nM, 10 min association and 9 min dissociation, reference flow cell subtracted
substance,measurement,value
OGP-hGH (from UniProt P01241 27-217),binding,binds
